# According to PubChem BioAssay AID493014 (National Center for Advancing Translational Sciences (NCATS), 2011):
# The whole screen tested about 340,000 compounds, of which about 170 (0.05%) were called active. The shares of active, inactive and inconclusive entries below differ from those in the screen. Calls follow the shape of the dose curve; as a rule, active = well fitted inhibition curve with a large enough effect in the signal ratio, with a control signal flat (not every such curve was filed as active); inconclusive = small, poorly fitted or top-dose-only effect, or effect the other way, or a change in a side signal; inactive = flat fitted curve, though single readings scatter; the % refers to the signal ratio. Potencies of inconclusive entries are doubtful fits and often do not repeat.
# Assay: qHTS Assay to Find Inhibitors of Chronic Active B-Cell Receptor Signaling;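 as to activity change, negative = inhibition: plate controls were basal doxycycline-induced cells for no effect and cells given 10 µM MG132 for full effect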
# Conditions: ABC-DLBCL IkBa-CBG/CBR reporter, luminescence ratio (green luciferase fused to IkBa over red control in TMD8 lymphoma cells), 4 h; activity change, negative = inhibition: at 46.1 µM (top of the series) unless noted
# Method in brief: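 TMD8 ABC-DLBCL cells carrying doxycycline-inducible green luciferase fused to IkappaBalpha plus unfused red luciferase were exposed to compounds (up to 46 uM) for 4 hrs at 37C. Activity came from the overlap-corrected green/red luminescence ratio.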
# Potency is read from the fitted curve at half-maximal effect.
SMILES,"activity change, negative = inhibition",Potency
CC1=[N+](C)N(c2ccccc2)C(=O)C1N=Cc1c(Cl)cccc1Cl (stereo not given),inconclusive: 13%,
COc1ccc(C)cc1N1CC(C(=O)Nc2ccccc2N2CCCCC2)CC1=O (stereo not given),inactive: -2.93%,
C/C(=N\NC(=O)c1ccc(F)cc1)c1cccc(NC(=O)c2cccc(F)c2)c1,,"inconclusive: 22.4 µM [falling, single point]"
O=C(C1=NN[C@@H]2C(=O)N(c3ccccc3C(F)(F)F)C(=O)[C@H]12)c1cnccn1,inconclusive: 0.117%,
CC1(C)CC(=O)C2=C(C1)NC1=C(C(=O)c3ccccc31)C2c1ccc(Cl)cc1 (stereo not given),inconclusive: 22.8%,
COc1ccc(CCn2c(C)cc3c(c2=O)C(c2ccncc2)C(C#N)=C(N)O3)cc1OC (stereo not given),,"inconclusive: 3.55 µM [falling, partial curve, poor fit]"
CN(CC(=O)Nc1cccc2ccccc12)C(=O)/C=C/c1cccs1,,"inconclusive: 20.6 µM [falling, partial curve]"
Cc1ccc(C(NC(=O)NC(C)c2ccccc2)C(Cl)(Cl)Cl)cc1F (stereo not given),,"inconclusive: 18.4 µM [rising, partial curve, poor fit]"
Cc1cc(C)cc(Oc2ccc(S(=O)(=O)N3CCN(C)CC3)cn2)c1,inconclusive: -23.6%,
COC(=O)CCN1CCN(S(=O)(=O)c2cccc(Br)c2)CC1,inconclusive: 2.71%,
CN(C)S(=O)(=O)c1ccc2c(c1)/C(=C/c1cc3c([nH]1)CCCC3)C(=O)N2,,"inconclusive: 4.61 µM [falling, single point]"
Cc1cccc(N2C(=S)NC3c4cc(Cl)ccc4OC2(C)C3C(=O)N(C)C)c1 (stereo not given),,"inconclusive: 20 µM [falling, single point]"
O=C(CCn1nc(-c2ccc(Cl)cc2)ccc1=O)NCCc1ccccc1,inconclusive: -2.18%,
O=C(Nc1ccccc1F)C(=O)c1cn(CC(=O)N2CCCCC2)c2ccccc12,inconclusive: 358%,
CC1(C)CC(=O)C=C(NCC(O)c2ccccc2)C1 (stereo not given),inconclusive: -13.7%,
CSC1=NCCN1C(=O)COc1ccccc1,inconclusive: -18.9%,
Cc1ccc(N(CCC#N)C(=O)COC(=O)c2cc(C)oc2C)cc1,inactive: -0.0151%,
Cn1nc(-c2ccccc2)c(CO)c1Oc1ccc(F)cc1,inactive: -2.06%,
Cc1ccc(-c2noc(CCC(=O)NCCc3ccccc3Cl)n2)cc1,inconclusive: 8.04%,
CN(C)N1C(N)=C(C#N)C(c2ccc(Cl)cc2)C2=C1CCCC2=O (stereo not given),inconclusive: 4.54%,
O=C(Nc1nc2ccccc2s1)c1c(F)cccc1Cl,inconclusive: -6.07%,
OC(COc1ccc(Cl)cc1)CN1CCCCC1 (stereo not given),inactive: -3.31%,
Cc1ccc(C(C(=O)NC2CCCCC2)N(Cc2ccco2)C(=O)C2COc3ccccc3O2)o1 (stereo not given),,"inconclusive: 23.1 µM [falling, single point]"
O=C(NNC(=O)c1ccccc1Br)c1ccc(Cl)c(Cl)c1,inconclusive: -20.5%,
Cc1ccc(Cn2nnc3c(=O)[nH]c(C4CCN(S(=O)(=O)c5ccc(C)cc5)CC4)nc32)cc1,inconclusive: 16.4%,

SMILES,"activity change, negative = inhibition",Potency
COc1ccccc1N(CC(=O)NCCSc1ccccn1)S(=O)(=O)c1ccccc1,inconclusive: 12.2%,
CCCCCSc1nc2c(c(=O)[nH]c(=O)n2C)n1C(C)C,inconclusive: -0.614%,
COc1ccc(C(=O)CSc2nc(C(C)(C)C)nc3ccccc23)cc1,inconclusive: 27.5%,
CCOC(=O)CSc1n[nH]c(-c2ccco2)n1,,"inconclusive: 23.1 µM [rising, partial curve, poor fit]"
CC(C)(C)NC(=O)C(c1ccc(O)cc1)N(C(=O)CCC(=O)Nc1nccs1)c1cccc(F)c1 (stereo not given),inconclusive: 0.598%,
COc1ccc(N2CCN(C(c3ccccc3F)c3sc4nc(-c5ccco5)nn4c3O)CC2)cc1 (stereo not given),inconclusive: 20.8%,
COc1ccc(/C=N/NC(=O)C(=O)N2CCN(c3ccccc3OC)CC2)cc1,,"inconclusive: 15.8 µM [falling, single point]"
C[C@H](CO)N1C[C@H](C)[C@@H](CN(C)S(C)(=O)=O)Oc2c(NC(=O)Nc3ccc4c(c3)OCO4)cccc2C1=O,inconclusive: -4.2%,
O=C(O)CC(CCc1ccccc1)OC1OC(CO)C(O)C(O)C1O (stereo not given),inconclusive: 1.97%,
COC(=O)c1cc(=O)nc2sc(-c3ccc(F)cc3)nn12,inconclusive: 8.03%,
CCOC(=O)C1(Cc2cccc(OC)c2)CCN(CC=C(C)C)CC1,inactive: -3.43%,
COc1ccc2nc(-c3ccccc3)cc(C(=O)OCC(=O)N3CC(C)OC(C)C3)c2c1 (stereo not given),inconclusive: 0.556%,
COc1ccc(C2C(C(=O)NCCN3CCOCC3)c3ccccc3C(=O)N2C2CCCCC2)cc1 (stereo not given),,"inconclusive: 7.31 µM [rising, partial curve, poor fit]"
O=C(Cn1nc(-c2ccc(N3CCOCC3)c([N+](=O)[O-])c2)c2ccccc2c1=O)N1CCCCC1,inconclusive: 15.8%,
OCC1(CCCc2ccccc2)CCN(C2CCSCC2)CC1,inactive: -8.05%,
Cc1cccc2cc(CN(CCCO)C(=O)Nc3cccc(Cl)c3)c(=O)[nH]c12,inconclusive: 2.51%,
Cc1ccc(/C(N)=N/OC(=O)Cc2cccs2)cc1,inconclusive: -2.03%,
CN(C)C1(CN=Cc2cc(Cl)cc([N+](=O)[O-])c2O)CCCCC1,inactive: 0.131%,
CN(C)c1ccc(CNC(=O)CN(C)S(=O)(=O)c2cccc3cccnc23)cc1,inactive: -24.8%,
CCC(c1nnnn1Cc1cccs1)N1CCN(C2CCCC2)CC1 (stereo not given),inactive: 14.9%,
Cc1cccc(CCN(C(=O)c2csnn2)C(C(=O)NC2CCCC2)c2ccco2)c1 (stereo not given),inactive: -9.13%,
Cc1cc(OCCN2CCCCC2)nc2ccccc12,inconclusive: -7.31%,
CCC1(CC)Cc2ccccc2-c2nc(NN)[nH]c(=O)c21,inconclusive: 10.3%,
Cc1cc(C)c(C2C3=C(Nc4c2c(C)nn4-c2ccccn2)c2ccccc2C3=O)c(C)c1 (stereo not given),inconclusive: -0.583%,
Cc1c(Cl)ccc2c1NC(=O)[C@]21N[C@@H](Cc2ccccc2)[C@H]2C(=O)N(c3ccc(F)cc3)C(=O)[C@H]21,,"inconclusive: 4.61 µM [falling, full curve, poor fit]"

# Three compounds already listed, sorted by SMILES length, high to low:
SMILES,"activity change, negative = inhibition",Potency
Cc1cc(C)c(C2C3=C(Nc4c2c(C)nn4-c2ccccn2)c2ccccc2C3=O)c(C)c1 (stereo not given),inconclusive: -0.583%,
Cc1cccc(CCN(C(=O)c2csnn2)C(C(=O)NC2CCCC2)c2ccco2)c1 (stereo not given),inactive: -9.13%,
Cc1ccc(N(CCC#N)C(=O)COC(=O)c2cc(C)oc2C)cc1,inactive: -0.0151%,
